PubChem BioAssay AID504804, Drosophila RNAi Screening Center | 2011

- Aim: 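dsRNAs that improve Kc cell survival under doxorubicin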 (primary screen)
- Cells: Drosophila Kc cells
- Reagent: long dsRNA against Drosophila genes, 0.5 µg dsRNA per well
- Time to read-out: 96 h (48 h knock-down, then 48 h drug)
- Treatment: doxorubicin 5 µg/ml for 48 h, added 48 h after dsRNA
- Detection: 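Luminescent ATP counts per replicate, not normalised, reflecting viable cells after 48 h dsRNA knock-down followed by 48 h of 5 µg/ml doxorubicin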
- Direction: raw ATP luminescence: higher = more viable cells, protection from doxorubicin
- Hit rule: 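Active when both duplicate wells lie at least 2 SD above the plate mean and protection is confirmed by rescreening and independent dsRNAs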
The deposit covers about 19,000 reagents; below is a random part of those that have a named target and a result. In the full data, 47 (0.25%) are marked active. 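Signals are raw, not normalised; exact z-scores behind calls not deposited; actives needed confirmation, so some wells reaching 2 SD are inactive.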 Entries without a mark were called inactive. Reagents against one gene are numbered here.

| gene | dsRNA no. | raw ATP luminescence, replicate 1 | raw ATP luminescence, replicate 2 |
| --- | --- | --- | --- |
| COX8 | 1 | 72383 | 72290 |
| CG14708 | 1 | 58587 | 50160 |
| CG8245 | 1 | 61367 | 54523 |
| CG15531 | 1 | 32420 | 48650 |
| CSN4 | 1 | 27627 | 55223 |
| Nse4 | 1 | 32560 | 73863 |
| CG8237 | 1 | 59850 | 69323 |
| CG7990 | 1 | 1.47e5 | 1.67e5 |
| CG14518 | 1 | 61910 | 75730 |
| Dgat2 | 1 | 46710 | 50900 |
| Snp | 1 | 56230 | 58673 |

Looked up above.
CSN4, raw ATP luminescence, replicate 1: 27627
Value of COX8 under “raw ATP luminescence, replicate 1”: 72383
Under “raw ATP luminescence, replicate 2”, CG15531 shows 48650
Under “raw ATP luminescence, replicate 1”, CG14518 has 61910
Dgat2, raw ATP luminescence, replicate 2: 50900

More records follow:
| gene | dsRNA no. | raw ATP luminescence, replicate 1 | raw ATP luminescence, replicate 2 |
| --- | --- | --- | --- |
| Jon66Ci | 1 | 81500 | 95607 |
| LKRSDH | 1 | 1.11e5 | 61260 |
| CG12911 | 1 | 45343 | 71713 |
| CG4820 | 1 | 56913 | 50083 |
| pigs | 1 | 2.38e5 | 2.31e5 |
| pigs | 2 | 27410 | 34550 |
| pigs | 3 | 23430 | 36590 |
| Trax | 1 | 56217 | 35303 |
| CG16815 | 1 | 49400 | 83203 |
| eIF4E5 | 1 | 65067 | 62830 |
| CG3301 | 1 | 48907 | 33700 |
| CG12744 | 1 | 73587 | 60040 |
| AspRS | 1 | 68853 | 67487 |
| l(2)09851 | 1 | 45027 | 52713 |
| Dpit47 | 1 | 47930 | 80193 |
| Pep | 1 | 29953 | 23463 |
| CG31345 | 1 | 40957 | 51787 |
| CG31345 | 2 | 39400 | 48223 |
| CG13658 | 1 | 67520 | 72270 |
| kuz | 1 | 54793 | 60863 |
| Sec61gamma | 1 | 3.03e5 | 3.00e5 |
| ssp7 | 1 | 1.86e5 | 2.71e5 |
| CG31205 | 1 | 1.50e5 | 1.85e5 |
